What all share (test): EMSA
Common to all, as to conditions: EMSA: 20 mM Tris-HCl pH 7.5, 300 mM NaCl, 5 mM b-mercaptoethanol, 20% glycerol, agarose gel in Tris-glycine pH 8.0 (8.5 for FAM-RNA), 4 C; recombinant protein; label: 5' 6-FAM
On the technique in general: In EMSA bound probe runs differently from free probe, usually more slowly.

Data set [1] deals with BUD32 + CGI121.
Data set [2] deals with KAE1 + BUD32 G226A + CGI121 + PCC1.
Data set [3] deals with KAE1 + BUD32 G226R + CGI121 + PCC1.
Data set [4] concerns KAE1 + BUD32 I225A + CGI121 + PCC1.
Data set [5] deals with KAE1 + BUD32 K221A + CGI121 + PCC1.
The test system of data set [6] is KAE1 + BUD32 M224A + CGI121 + PCC1.
Data set [7] has as its system KAE1 + BUD32 R222A + CGI121 + PCC1.
The subject of data set [8] is KAE1 + BUD32 T223A + CGI121 + PCC1.

The exact form of at least one protein or probe is not confirmed. For some assays here: Weaker means in comparison with the reference protein, sequence or condition of that experiment. For some assays here: At least one verdict rests on a figure or table, not on a statement of the authors.

For “GCGCCUGUAGCUCAGUGGAUAGAGCGUCUGUUUCCUAAGCAGAAGGUCGUAGGUUCGACCCCUACCUGGCGCGCCA [5'-6FAM-tRNAArgCCU]”, the binding result in data set [1] is on record as “binds more weakly”; in data set [2], “binds”; in data set [3], “binds”; in data set [4], “binds”; in data set [5], “binds”; in data set [6] it was “binds”. The binding result in data set [7] and in data set [8] was “binds” throughout.

These data come from article PMC11077089, “Molecular basis of A. thaliana KEOPS complex in biosynthesizing tRNA t^6A” (Nucleic Acids Research, 2024).
